Laboratory results: paper PMC9723177

T1: STAM-binding protein (STAMBP) (human (endogenous in MDA-MB-231 and BT549)) (UniProt O95630)
T1 sequence: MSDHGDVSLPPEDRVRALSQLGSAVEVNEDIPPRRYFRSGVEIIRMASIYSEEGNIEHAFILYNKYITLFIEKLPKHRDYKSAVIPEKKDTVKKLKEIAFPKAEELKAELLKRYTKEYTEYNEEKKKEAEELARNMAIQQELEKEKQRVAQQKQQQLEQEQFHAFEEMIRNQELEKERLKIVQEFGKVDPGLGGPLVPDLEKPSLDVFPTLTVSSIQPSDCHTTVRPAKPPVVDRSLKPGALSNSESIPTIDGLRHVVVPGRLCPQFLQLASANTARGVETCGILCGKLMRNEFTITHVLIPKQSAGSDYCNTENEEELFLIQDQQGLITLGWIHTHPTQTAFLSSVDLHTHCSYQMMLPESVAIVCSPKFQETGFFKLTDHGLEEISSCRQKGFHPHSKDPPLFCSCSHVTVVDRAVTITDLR


Molecular target: T1, STAM-binding protein (STAMBP) (human (endogenous in MDA-MB-231 and BT549))
Assay: affinity purification with mass spectrometry; MDA-MB-231 cell lysates incubated with beads conjugated with anti-STAMBP antibodies; immunoprecipitates analyzed by mass spectrometry

Row | binding | Binder
1 | binds | retinoic acid-induced 14 (RAI14) (protein, UniProt Q9P0K7 1-980) MKSLKAKFRKSDTNEWNKNDDRLLQAVENGDAEKVASLLGKKGASATKHDSEGKTAFHLAAAKGHVECLRVMITHGVDVTAQDTTGHSALHLAAKNSHHECIRKLLQSKCPAESVDSSGKTALHYAAAQGCLQAVQILCEHKSPINLKDLDGNIPLLLAVQNGHSEICHFLLDHGADVNSRNKSGRTALMLACEIGSSNAVEALIKKGADLNLVDSLGYNALHYSKLSENAGIQSLLLSKISQDADLKTPTKPKQHDQVSKISSERSGTPKKRKAPPPPISPTQLSDVSSPRSITSTPLSGKESVFFAEPPFKAEISSIRENKDRLSDSTTGADSLLDISSEADQQDLLSLLQAKVASLTLHNKELQDKLQAKSPKEAEADLSFDSYHSTQTDLGPSLGKPGETSPPDSKSSPSVLIHSLGKSTTDNDVRIQQLQEILQDLQKRLESSEAERKQLQVELQSRRAELVCLNNTEISENSSDLSQKLKETQSKYEEAMKEVLSVQKQMKLGLVSPESMDNYSHFHELRVTEEEINVLKQDLQNALEESERNKEKVRELEEKLVEREKGTVIKPPVEEYEEMKSSYCSVIENMNKEKAFLFEKYQEAQEEIMKLKDTLKSQMTQEASDEAEDMKEAMNRMIDELNKQVSELSQLYKEAQAELEDYRKRKSLEDVTAEYIHKAEHEKLMQLTNVSRAKAEDALSEMKSQYSKVLNELTQLKQLVDAQKENSVSITEHLQVITTLRTAAKEMEEKISNLKEHLASKEVEVAKLEKQLLEEKAAMTDAMVPRSSYEKLQSSLESEVSVLASKLKESVKEKEKVHSEVVQIRSEVSQVKREKENIQTLLKSKEQEVNELLQKFQQAQEELAEMKRYAESSSKLEEDKDKKINEMSKEVTKLKEALNSLSQLSYSTSSSKRQSQQLEALQQQVKQLQNQLAECKKQHQEVISVYRMHLLYAVQGQMDEDVQKVLKQILTMCKNQSQKK
2 | binds | RBM14 (protein, UniProt Q96PK6 1-669) MKIFVGNVDGADTTPEELAALFAPYGTVMSCAVMKQFAFVHMRENAGALRAIEALHGHELRPGRALVVEMSRPRPLNTWKIFVGNVSAACTSQELRSLFERRGRVIECDVVKDYAFVHMEKEADAKAAIAQLNGKEVKGKRINVELSTKGQKKGPGLAVQSGDKTKKPGAGDTAFPGTGGFSATFDYQQAFGNSTGGFDGQARQPTPPFFGRDRSPLRRSPPRASYVAPLTAQPATYRAQPSVSLGAAYRAQPSASLGVGYRTQPMTAQAASYRAQPSVSLGAPYRGQLASPSSQSAAASSLGPYGGAQPSASALSSYGGQAAAASSLNSYGAQGSSLASYGNQPSSYGAQAASSYGVRAAASSYNTQGAASSLGSYGAQAASYGAQSAASSLAYGAQAASYNAQPSASYNAQSAPYAAQQAASYSSQPAAYVAQPATAAAYASQPAAYAAQATTPMAGSYGAQPVVQTQLNSYGAQASMGLSGSYGAQSAAAATGSYGAAAAYGAQPSATLAAPYRTQSSASLAASYAAQQHPQAAASYRGQPGNAYDGAGQPSAAYLSMSQGAVANANSTPPPYERTRLSPPRASYDDPYKKAVAMSKRYGSDRRLAELSDYRRLSESQLSFRRSPTKSSLDYRRLPDAHSDYARYSGSYNDYLRAAQMHSGYQRRM

No constants are given. Whether binding was seen depends on the method and setting. In cells and extracts the contact can be indirect. A yes stands for co-enrichment or nearness to the bait. Other partners may have been found. Sequences can lack the tags named with a protein.
